Measurements published in publication doi:10.1101/499962.
Results are given in words; binding and its absence hold for the method and conditions named.

Chains of the proteins cited; added tags and fusions are not shown.
UniProt P69441, whole entry: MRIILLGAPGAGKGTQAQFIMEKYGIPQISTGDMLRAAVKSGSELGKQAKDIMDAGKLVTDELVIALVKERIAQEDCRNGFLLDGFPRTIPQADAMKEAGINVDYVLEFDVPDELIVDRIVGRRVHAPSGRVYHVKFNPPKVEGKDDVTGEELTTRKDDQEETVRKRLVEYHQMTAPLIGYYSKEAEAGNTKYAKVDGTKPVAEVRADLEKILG

Molecular target: E. coli adenylate kinase (Adk), wild type (E. coli) (UniProt P69441)
Test: SEC

- binding: no binding
Substance: E. coli adenylate kinase (Adk), wild type (from UniProt P69441 1-214) (enzyme)
